Construct, isoform or probe ends are uncertain for at least one entry. Tags and fusion partners may be left off the protein sequences shown.
Assays:
[1] = target: T1, CaDRHB12 (Capsicum annuum) (UniProt A0A2G2ZAK7); assay: competition with a labelled probe; details: unlabeled competitor against biotin-labelled N1; LightShift Chemiluminescent EMSA Kit (Thermo Fisher); pH and temperature not stated; recombinant protein; protein details: MBP
T1 sequence (looked up, limits assumed): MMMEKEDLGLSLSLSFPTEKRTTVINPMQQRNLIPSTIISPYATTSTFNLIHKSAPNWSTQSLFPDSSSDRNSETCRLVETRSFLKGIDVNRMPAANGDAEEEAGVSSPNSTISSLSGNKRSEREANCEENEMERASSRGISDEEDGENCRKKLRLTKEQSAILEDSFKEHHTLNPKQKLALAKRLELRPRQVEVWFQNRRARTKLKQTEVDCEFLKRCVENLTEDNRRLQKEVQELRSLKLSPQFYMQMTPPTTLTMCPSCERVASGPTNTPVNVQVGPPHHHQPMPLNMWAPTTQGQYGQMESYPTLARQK

[2] = target: T1, CaDRHB12 (Capsicum annuum); assay: EMSA; details: LightShift Chemiluminescent EMSA Kit (Thermo Fisher); pH and temperature not stated; recombinant protein; protein details: MBP

| Sequence | binding result [1] | binding result [2] |
| --- | --- | --- |
| TAAATATAATAATTGATAGTG (double strand) [ATHB6COREAT cold probe (CaRAB18 promoter)] | binds |  |
| TATTTAAATATAATAATTGATAGTGCCAA (double strand) [ATHB6COREAT hot probe (CaRAB18 promoter)] |  | binds |

From publication PMC12576426
